Measurements: the supplement of paper PMC12819154, “High-throughput peptide-centric local stability assay extends protein–ligand identification to membrane proteins, tissues and bacteria” (Nature Structural & Molecular Biology, 2025)
Some of the results follow. Small differences around the control level are noise.

The chains behind the UniProt entries cited, without tags or fusion partners. Where a name states a change or a piece, a line headed by the entry shows the natural chain unless it says otherwise.
UniProt Q8BHC0: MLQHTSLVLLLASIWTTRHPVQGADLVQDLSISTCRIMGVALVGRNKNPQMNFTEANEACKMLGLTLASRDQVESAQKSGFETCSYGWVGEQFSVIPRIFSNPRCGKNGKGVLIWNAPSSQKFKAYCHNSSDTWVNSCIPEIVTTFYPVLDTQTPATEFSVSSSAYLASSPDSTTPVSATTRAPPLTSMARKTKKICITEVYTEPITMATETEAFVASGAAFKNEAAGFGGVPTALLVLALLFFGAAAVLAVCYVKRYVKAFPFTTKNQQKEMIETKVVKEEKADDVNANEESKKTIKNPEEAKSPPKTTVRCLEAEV
UniProt Q8BH97: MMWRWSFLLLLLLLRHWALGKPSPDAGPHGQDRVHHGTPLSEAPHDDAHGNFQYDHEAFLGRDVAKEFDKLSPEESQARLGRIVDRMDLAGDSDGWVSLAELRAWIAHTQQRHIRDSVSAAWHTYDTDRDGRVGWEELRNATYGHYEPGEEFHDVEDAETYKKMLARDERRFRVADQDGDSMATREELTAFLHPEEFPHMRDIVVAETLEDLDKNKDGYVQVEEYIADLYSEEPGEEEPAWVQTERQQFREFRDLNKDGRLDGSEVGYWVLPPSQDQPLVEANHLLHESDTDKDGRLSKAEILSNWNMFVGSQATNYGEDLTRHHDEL
UniProt Q8C407: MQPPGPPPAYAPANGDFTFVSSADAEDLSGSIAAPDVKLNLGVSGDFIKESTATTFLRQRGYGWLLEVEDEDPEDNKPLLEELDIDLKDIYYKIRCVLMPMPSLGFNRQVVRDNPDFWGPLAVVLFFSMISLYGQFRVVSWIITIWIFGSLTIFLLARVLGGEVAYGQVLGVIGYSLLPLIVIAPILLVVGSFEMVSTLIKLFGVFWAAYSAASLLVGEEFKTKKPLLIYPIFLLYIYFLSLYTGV
UniProt Q8BP56: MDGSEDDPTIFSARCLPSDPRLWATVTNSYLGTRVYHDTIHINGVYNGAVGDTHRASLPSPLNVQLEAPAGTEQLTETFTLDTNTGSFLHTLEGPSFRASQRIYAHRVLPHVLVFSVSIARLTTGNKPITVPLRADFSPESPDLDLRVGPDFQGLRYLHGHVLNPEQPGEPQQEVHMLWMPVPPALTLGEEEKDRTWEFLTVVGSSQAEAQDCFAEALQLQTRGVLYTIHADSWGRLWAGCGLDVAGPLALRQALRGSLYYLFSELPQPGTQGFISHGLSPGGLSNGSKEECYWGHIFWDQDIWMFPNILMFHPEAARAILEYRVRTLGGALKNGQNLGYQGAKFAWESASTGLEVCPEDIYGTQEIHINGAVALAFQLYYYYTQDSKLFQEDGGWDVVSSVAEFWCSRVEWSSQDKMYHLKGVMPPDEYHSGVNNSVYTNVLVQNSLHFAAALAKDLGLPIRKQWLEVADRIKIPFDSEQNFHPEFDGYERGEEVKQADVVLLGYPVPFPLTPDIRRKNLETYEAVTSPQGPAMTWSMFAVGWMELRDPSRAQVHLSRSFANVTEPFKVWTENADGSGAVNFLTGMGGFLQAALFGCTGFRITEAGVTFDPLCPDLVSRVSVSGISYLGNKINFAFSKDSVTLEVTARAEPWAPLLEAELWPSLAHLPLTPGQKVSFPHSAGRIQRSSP
UniProt Q8BWH0: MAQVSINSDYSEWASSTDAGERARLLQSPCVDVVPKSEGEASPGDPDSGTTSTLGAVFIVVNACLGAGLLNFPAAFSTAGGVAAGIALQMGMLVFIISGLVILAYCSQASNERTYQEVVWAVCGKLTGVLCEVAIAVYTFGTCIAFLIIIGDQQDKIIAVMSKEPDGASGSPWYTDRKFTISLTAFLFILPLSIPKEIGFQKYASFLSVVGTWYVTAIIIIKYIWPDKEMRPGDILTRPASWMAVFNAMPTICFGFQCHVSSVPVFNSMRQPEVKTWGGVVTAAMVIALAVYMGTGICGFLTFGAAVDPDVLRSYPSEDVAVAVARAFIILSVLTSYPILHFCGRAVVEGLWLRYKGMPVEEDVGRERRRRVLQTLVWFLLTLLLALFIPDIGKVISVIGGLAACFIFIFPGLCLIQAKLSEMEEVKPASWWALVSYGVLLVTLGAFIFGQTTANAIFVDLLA
UniProt Q8BSM7: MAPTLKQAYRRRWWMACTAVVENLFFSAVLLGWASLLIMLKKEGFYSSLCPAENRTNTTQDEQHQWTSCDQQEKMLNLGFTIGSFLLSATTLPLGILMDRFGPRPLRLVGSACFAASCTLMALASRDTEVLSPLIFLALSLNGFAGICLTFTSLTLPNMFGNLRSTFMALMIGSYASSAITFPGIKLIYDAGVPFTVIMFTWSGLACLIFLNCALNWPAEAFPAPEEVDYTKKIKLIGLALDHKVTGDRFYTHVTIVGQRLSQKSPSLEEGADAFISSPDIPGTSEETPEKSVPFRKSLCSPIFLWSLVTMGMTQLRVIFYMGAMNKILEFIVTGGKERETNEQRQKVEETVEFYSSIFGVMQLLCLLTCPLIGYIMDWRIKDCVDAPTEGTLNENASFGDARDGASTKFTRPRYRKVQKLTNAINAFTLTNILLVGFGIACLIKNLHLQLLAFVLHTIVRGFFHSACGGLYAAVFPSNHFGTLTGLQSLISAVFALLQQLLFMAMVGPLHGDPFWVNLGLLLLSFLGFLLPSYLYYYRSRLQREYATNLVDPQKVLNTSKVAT
UniProt Q8CDG3: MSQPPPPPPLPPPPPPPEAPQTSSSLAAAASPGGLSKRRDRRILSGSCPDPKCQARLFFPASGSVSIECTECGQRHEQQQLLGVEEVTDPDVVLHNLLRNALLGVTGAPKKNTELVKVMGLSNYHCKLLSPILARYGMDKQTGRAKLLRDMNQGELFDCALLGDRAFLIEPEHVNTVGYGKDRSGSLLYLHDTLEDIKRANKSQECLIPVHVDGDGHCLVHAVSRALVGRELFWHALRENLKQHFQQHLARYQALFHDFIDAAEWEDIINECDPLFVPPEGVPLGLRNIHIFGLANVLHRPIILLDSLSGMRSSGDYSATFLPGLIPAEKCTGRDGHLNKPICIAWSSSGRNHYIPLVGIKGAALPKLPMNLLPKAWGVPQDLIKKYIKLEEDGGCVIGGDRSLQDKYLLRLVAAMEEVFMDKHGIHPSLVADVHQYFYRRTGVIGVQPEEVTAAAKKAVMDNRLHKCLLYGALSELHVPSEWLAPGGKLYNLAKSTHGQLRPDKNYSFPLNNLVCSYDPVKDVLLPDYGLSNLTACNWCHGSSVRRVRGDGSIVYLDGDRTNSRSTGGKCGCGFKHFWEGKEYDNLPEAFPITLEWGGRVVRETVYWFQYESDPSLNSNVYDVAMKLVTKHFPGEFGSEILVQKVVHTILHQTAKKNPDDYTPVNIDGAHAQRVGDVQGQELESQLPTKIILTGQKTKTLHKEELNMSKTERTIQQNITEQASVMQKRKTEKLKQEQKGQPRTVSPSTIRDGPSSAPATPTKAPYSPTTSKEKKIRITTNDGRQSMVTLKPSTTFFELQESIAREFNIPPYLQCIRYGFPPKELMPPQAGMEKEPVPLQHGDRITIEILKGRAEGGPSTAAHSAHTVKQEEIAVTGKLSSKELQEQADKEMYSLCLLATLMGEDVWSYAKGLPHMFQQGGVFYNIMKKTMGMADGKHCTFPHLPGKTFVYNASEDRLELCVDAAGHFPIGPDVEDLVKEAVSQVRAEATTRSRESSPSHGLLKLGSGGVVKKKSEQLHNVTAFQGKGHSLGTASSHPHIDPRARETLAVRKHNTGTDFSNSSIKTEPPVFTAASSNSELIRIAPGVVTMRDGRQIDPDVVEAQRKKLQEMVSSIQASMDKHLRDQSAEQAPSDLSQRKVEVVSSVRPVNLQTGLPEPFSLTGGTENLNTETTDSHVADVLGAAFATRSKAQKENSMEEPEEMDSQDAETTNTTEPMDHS
UniProt Q8BWN8: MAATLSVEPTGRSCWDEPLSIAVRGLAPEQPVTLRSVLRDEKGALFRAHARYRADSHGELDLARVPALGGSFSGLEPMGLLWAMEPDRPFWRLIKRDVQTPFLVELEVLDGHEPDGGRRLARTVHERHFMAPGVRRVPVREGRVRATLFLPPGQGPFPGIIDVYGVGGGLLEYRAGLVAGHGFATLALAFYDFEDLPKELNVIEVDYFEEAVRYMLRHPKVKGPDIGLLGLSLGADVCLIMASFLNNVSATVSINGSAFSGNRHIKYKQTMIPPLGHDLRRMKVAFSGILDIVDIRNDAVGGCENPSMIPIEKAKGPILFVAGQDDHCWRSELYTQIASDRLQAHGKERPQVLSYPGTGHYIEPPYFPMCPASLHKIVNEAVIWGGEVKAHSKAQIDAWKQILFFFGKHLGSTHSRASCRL
UniProt Q8BM88: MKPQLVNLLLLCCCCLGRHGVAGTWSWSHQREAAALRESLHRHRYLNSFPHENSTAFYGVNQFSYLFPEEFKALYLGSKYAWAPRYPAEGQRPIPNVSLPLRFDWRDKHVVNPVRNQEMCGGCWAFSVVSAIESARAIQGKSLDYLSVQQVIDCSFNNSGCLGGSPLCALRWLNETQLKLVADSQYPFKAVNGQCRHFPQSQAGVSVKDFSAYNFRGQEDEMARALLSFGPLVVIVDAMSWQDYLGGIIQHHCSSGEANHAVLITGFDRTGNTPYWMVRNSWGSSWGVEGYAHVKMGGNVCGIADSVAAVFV
UniProt Q8CAY6: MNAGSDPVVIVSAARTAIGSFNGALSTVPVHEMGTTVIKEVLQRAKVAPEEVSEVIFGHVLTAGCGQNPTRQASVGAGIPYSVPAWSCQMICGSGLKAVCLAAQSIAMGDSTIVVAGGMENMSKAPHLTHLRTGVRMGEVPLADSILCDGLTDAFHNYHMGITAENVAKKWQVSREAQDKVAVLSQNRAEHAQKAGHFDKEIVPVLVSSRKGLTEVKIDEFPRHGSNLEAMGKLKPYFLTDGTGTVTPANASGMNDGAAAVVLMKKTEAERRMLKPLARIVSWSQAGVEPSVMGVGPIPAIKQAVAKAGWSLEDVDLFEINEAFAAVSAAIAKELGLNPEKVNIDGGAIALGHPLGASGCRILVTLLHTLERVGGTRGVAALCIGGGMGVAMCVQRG
UniProt Q8BHA3: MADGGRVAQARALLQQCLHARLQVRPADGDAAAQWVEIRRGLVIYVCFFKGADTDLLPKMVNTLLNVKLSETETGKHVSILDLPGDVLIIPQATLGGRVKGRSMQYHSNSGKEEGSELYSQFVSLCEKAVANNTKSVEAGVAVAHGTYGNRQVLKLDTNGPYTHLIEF
UniProt Q8C0Z1: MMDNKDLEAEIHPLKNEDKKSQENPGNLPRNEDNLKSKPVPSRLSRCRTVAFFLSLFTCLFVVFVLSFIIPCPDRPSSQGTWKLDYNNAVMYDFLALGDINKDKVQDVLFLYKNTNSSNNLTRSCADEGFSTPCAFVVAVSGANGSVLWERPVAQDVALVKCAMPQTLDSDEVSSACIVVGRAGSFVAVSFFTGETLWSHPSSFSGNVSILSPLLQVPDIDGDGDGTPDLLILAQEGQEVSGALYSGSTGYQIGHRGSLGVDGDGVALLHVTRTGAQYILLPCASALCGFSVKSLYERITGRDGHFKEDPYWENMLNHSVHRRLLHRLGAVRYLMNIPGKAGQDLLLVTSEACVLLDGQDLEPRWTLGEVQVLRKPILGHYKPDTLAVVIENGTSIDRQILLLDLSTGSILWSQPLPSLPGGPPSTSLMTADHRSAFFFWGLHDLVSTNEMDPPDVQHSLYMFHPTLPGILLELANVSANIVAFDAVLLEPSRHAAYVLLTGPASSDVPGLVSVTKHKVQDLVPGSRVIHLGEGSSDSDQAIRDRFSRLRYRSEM
UniProt Q8BX10: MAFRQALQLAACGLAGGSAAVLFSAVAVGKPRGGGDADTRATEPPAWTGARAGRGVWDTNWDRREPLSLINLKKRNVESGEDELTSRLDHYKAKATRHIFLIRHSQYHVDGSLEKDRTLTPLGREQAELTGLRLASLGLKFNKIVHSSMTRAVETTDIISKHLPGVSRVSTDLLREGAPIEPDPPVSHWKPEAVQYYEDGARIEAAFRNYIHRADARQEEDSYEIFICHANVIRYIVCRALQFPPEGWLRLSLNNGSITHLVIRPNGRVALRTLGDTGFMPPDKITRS
UniProt Q8BX09, whole entry: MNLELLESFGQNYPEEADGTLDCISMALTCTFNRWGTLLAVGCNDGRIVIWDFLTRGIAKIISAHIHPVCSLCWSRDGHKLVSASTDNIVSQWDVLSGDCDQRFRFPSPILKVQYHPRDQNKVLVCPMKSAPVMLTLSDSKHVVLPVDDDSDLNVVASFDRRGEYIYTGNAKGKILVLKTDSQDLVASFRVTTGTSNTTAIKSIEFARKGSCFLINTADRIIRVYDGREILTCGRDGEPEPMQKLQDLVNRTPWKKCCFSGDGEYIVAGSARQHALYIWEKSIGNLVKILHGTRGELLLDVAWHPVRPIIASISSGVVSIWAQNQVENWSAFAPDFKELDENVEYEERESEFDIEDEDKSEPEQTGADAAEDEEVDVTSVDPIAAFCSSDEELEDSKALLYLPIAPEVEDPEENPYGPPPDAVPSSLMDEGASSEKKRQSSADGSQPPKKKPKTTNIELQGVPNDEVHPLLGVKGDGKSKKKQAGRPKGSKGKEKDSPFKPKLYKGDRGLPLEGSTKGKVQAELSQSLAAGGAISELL

compound: CN[C@@H]1C[C@H]2O[C@@](C)([C@@H]1OC)n1c3ccccc3c3c4c(c5c6ccccc6n2c5c31)C(=O)NC4 [staurosporine]; assay: log2 fold change of pooled soluble protein (PISA), ligand vs vehicle (log2 ratio); higher = more thermally stabilized; settings: ligand concentration: 20 uM; assay format: PISA pool 52.9/55.5/58.6 C

Target | log2 fold change of pooled soluble protein
UniProt Q8BHC0 | 0.147
UniProt Q8BH97 | 0.0659
UniProt Q8C407 | -0.0674
UniProt Q8BUR4 | 0.503
UniProt Q8BP56 | 0.0318
UniProt Q8CES0 | 0.107
UniProt Q8BLN6 | -0.194
UniProt Q8BWH0 | -0.0908
UniProt Q8BSM7 | 0.114
UniProt Q8BXA1 | -0.0397
UniProt Q8CDG3 | -0.0353
UniProt Q8BH60 | 0.0185
UniProt Q8BZ47 | -0.23
UniProt Q8C0C7 | -0.321
UniProt Q8CDN6 | -0.0545
UniProt Q8BXK8 | -0.186
UniProt Q8BWN8 | 0.217
UniProt Q8CAK1 | -0.143
UniProt Q8BM88 | -0.354

Target | log2 fold change of pooled soluble protein
UniProt Q8BZW8 | -0.158
UniProt Q8BP47 | 0.00621
UniProt Q8CAY6 | -0.0361
UniProt Q8BHA3 | 0.128
UniProt Q8C4Y3 | 0.192
UniProt Q8BQ47 | -0.0913
UniProt Q8C0Z1 | -0.00579
UniProt Q8BX10 | 0.00445
UniProt Q8CFJ7 | -0.154
UniProt Q8BX94 | -0.642
UniProt Q8C0D4 | 0.0872
UniProt Q8BMB3 | -0.00805
UniProt Q8C5H8 | -0.0101
UniProt Q8CCI5 | 0.616
UniProt Q8CB77 | -0.0693
UniProt Q8BX09 | 0.0828
UniProt Q8BXJ2 | -0.082
UniProt Q8CC88 | -0.0289

In another format: results already given.

| Target | log2 fold change of pooled soluble protein |
| --- | --- |
| UniProt Q8C0C7 | -0.321 |
| UniProt Q8BXJ2 | -0.082 |
